In paper PMC10665234, “Nutritional Supplementation and Enhanced Antioxidant Function by Dietary Intake of Selenoneine and Other Selenium Compounds in Red Seabream Pagrus major” (Marine Biotechnology (New York, N.y.), 2023):

Experiment: Growth (body weight) of red seabream during the feeding experiment
Type: in vivo, red seabream Pagrus major

SMILES | body weight (2 weeks, diet 1 mg Se/kg added) [g] | body weight (2 weeks, diet 2 mg Se/kg added) [g] | body weight (4 weeks, diet 1 mg Se/kg added) [g] | body weight (4 weeks, diet 2 mg Se/kg added) [g] | body weight (5 weeks, diet 1 mg Se/kg added) [g] | body weight (5 weeks, diet 2 mg Se/kg added) [g]
C[Se]CC[C@H](N)C(=O)O [Selenomethionine, Seleno-L-methionine] | 313 ± 52 | 309 ± 32 | 316 ± 22 | 333 ± 33 | 307 ± 65 | 322 ± 45
C[N+](C)(C)[C@@H](Cc1cnc([Se-])[nH]1)C(=O)O [Selenoneine, 2-selenyl-Nα, Nα, Nα-trimethyl-L-histidine] | 275 ± 56 | 338 ± 39 | 321 ± 47 | 378 ± 58 | 308 ± 52 | 394 ± 61
O=[Se]([O-])[O-].[Na+].[Na+] [Sodium selenite, reference compound] | 296 ± 46 | 290 ± 48 | 359 ± 50 | 351 ± 62 | 316 ± 55 | 363 ± 72
